Values quoted from earlier work as cited in patent publication US20160113981A1, “TOPICAL COMPOSITION” (priority 2014, published 2016).
Some entries share one result that the patent states for a list of compounds.

Conditions: after topical application of lavender oil

## C=CC(C)(CCC=C(C)C)OC(C)=O (stereo not shown) [linalyl acetate]
  time by which largely disappeared from the blood: ≤ 90 min
